Test results reported in US10233209B2, “Inhibitors of the farnesoid x receptor and uses in medicine” (The United States of America, as represented by the …, priority 2013, dated 2019).

System: HFD-induced obese mice
Experiment: Gly-MCA in C57BL/6N mice made obese by 12 weeks of high-fat diet
Format: in vivo, mouse
Conditions: 5 mg/kg, 6 weeks
From the text: High-fat diet (HFD) (60% kcal consisting of fat) was purchased from Bioserv. […] Fxr^fl/fl and Fxr^ΔIE (Kim et al., J. Lipid Res. 48:2664-2672, 2007) mice were backcrossed with C57BL/6N mice for over 10 generations. For the antibiotic (the combination of bacitracin, neomycin, and streptomycin) study, male C57BL/6N mice from 6 weeks of age were fed a high-fat diet (“HFD) and administered 0.1% (w/v) of each compound (the combination of bacitracin, neomycin, and streptomycin) in the drinking water. […] For TβMCA in vivo, male C57BL/6N mice from 6 weeks of age were fed a HFD and treated with the antibiotics (0.1% of each compound of bacitracin, neomycin, and streptomycin combination) for 3 days. Vehicle (saline), TCA (400 mg/kg body weight, dissolved in saline) or a combination of TCA and TβMCA (400 mg/kg body weight of each compound, dissolved in saline) were orally administered to the mice and followed by a second dose 12 h later. The mice were killed 2 h later for tissue collection. For the Gly-MCA study, Gly-MCA was custom synthesized. […] Cumulative food intake and TEEbal were measured for 1 week in vehicle and Gly-MCA-treated mice from 6 to 7 weeks of HFD. TEEbal was measured as previously described (Ravussin et al., Int. J. Obesity 37:399-403, 2013).

C[C@H](CCC(=O)NCC(=O)O)[C@H]1CC[C@H]2[C@@H]3[C@@H](O)[C@@H](O)[C@@H]4C[C@H](O)CC[C@]4(C)[C@H]3CC[C@]12C [Gly-MCA, glycine-β-muricholic acid]
levels of TαMCA and TβMCA in ileum: significantly enhanced
